Where two headings read alike, the source gives them in different places. Some results were stated once for a whole list of compounds, not compound by compound.
Biological target: TNFα (Homo sapiens, UniProt P01375)
Test: TNF induced HEK-Blue assay (NF-kB-driven secreted alkaline phosphatase reporter)
Type: cell-based
In short: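 HEK-Blue-CD40L cells (NF-kB-driven SEAP reporter), 20,000/well, added after 30 min pre-incubation of compound (0.004–25 μM final) with TNFα 0.5 ng/mL final at 37 °C; 18 h incubation. SEAP read with QUANTI-Blue at 620 nm; IC50 from 4-parameter logistic fit, normalized to unstimulated and stimulated DMSO controls.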

Protein sequences, listed by entry. Tags and fused reporters are not part of them. Residues count along the entry.
UniProt P01375, 77-233 limits assumed: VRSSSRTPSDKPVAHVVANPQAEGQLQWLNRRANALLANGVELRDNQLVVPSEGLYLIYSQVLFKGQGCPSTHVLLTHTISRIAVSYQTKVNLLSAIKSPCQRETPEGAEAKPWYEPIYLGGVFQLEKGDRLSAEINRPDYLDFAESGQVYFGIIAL

[1] = TNFα 0.5 ng/mL, HEK-Blue-CD40L cells, 18 h; read-out: IC50 values measured in the TNF induced HEK-Blue assay

| SMILES | IC50 [1] [µM] | IC50 (read-out: IC50 values measured in the TNF induced HEK-Blue assay; TNFα 0.5 ng/mL, HEK-Blue-CD40L cells, 18 h) [µM] |
| --- | --- | --- |
| Cc1nc2cc(F)c(-c3cnc(C(C)(C)O)nc3)cc2c(N[C@H](C)c2cc(C#N)ccc2F)c1Cl [Example 382, (R)-3-(1-((3-chloro-7-fluoro-6-(2-(2-hydroxypropan-2-yl)pyrimidin-5-yl)-2-methylquinolin-4-yl)amino)ethyl)-4-fluorobenzonitrile] | ≤ 25 |  |
| Cc1nc2ccc(-c3cnc(C(C)(C)O)nc3)cc2c(N[C@H](C)c2cc(N3CCNC3=O)ccc2F)c1Cl [Example 373, (R)-1-(3-(1-((3-chloro-6-(2-(2-hydroxypropan-2-yl)pyrimidin-5-yl)-2-methylquinolin-4-yl)amino)ethyl)-4-fluorophenyl)imidazolidin-2-one] | ≤ 25 |  |
| CCOc1ncc(-c2ccc3ncc(Cl)c(N[C@H](C)c4ccccc4F)c3c2)cn1 [Example 222, (R)-3-chloro-6-(2-ethoxypyrimidin-5-yl)-N-(1-(2-fluorophenyl)ethyl)quinolin-4-amine] |  | ≤ 25 |
| CC(Nc1c(Cl)cnc2cc(F)c(-c3ccc(C(O)C4CC4)cc3)cc12)c1ccccc1F (stereo not drawn) [Example 260, (4-(3-chloro-7-fluoro-4-((1-(2-fluorophenyl)ethyl)amino)quinolin-6-yl)phenyl)(cyclopropyl)methanol] | ≤ 25 |  |
| C=Cc1ccc(F)c(C(CC)Nc2c(Cl)cnc3ccc(-c4cnc(C(C)(C)O)nc4)cc23)n1 (racemic) [Example 126, 2-(5-(3-chloro-4-((1-(3-fluoro-6-vinylpyridin-2-yl)propyl)amino)quinolin-6-yl)pyrimidin-2-yl)propan-2-ol] | ≤ 25 |  |
| CNS(=O)(=O)c1ccc(-c2cc(Cl)c3ncc(Cl)c(NC(C)c4ccccc4F)c3c2)cc1 (racemic) [Example 22, 4-(3,8-dichloro-4-((1-(2-fluorophenyl)ethyl)amino)quinolin-6-yl)-N-methylbenzenesulfonamide] | ≤ 25 |  |
| CC(Nc1c(Cl)cnc2cc(F)c(-c3cnc(N4CCC(C(C)(C)O)CC4)nc3)cc12)c1ccccc1F (single isomer, unassigned) [Example 245, 2-(1-(5-(3-chloro-7-fluoro-4-((1-(2-fluorophenyl)ethyl)amino)quinolin-6-yl)pyrimidin-2-yl)piperidin-4-yl)propan-2-ol] | ≤ 25 |  |
| CC(C)(O)c1ncc(-c2ccc3ncc(Cl)c(NC4(c5ccccc5F)CC4)c3c2)cn1 [Example 158, 2-(5-(3-chloro-4-((1-(2-fluorophenyl)cyclopropyl)amino)quinolin-6-yl)pyrimidin-2-yl)propan-2-ol] | ≤ 25 |  |
| C=Cc1cccc(C(Nc2c(Cl)cnc3cc(F)c(-c4cnc(C(C)(C)O)nc4)nc23)C(F)F)c1 (racemic) [Example 216, 2-(5-(7-chloro-8-((2,2-difluoro-1-(3-vinylphenyl)ethyl)amino)-3-fluoro-1,5-naphthyridin-2-yl)pyrimidin-2-yl) propan-2-ol] | ≤ 25 |  |
| CC(Cc1cccc2[nH]ccc12)Nc1c(Cl)cnc2ccc(-c3cnc(C(C)(C)O)nc3)cc12 (racemic) [Example 144, 2-(5-(4-((1-(1H-indol-4-yl)propan-2-yl)amino)-3-chloroquinolin-6-yl)pyrimidin-2-yl)propan-2-ol] | ≤ 25 |  |
| C[C@@H](Nc1c(Cl)cnc2ccc(-c3cnc(C(C)(C)O)nc3)cc12)c1cc(-c2ccc(N)nc2)ccc1F [Example 348, (R)-2-(5-(4-((1-(5-(6-aminopyridin-3-yl)-2-fluorophenyl)ethyl)amino)-3-chloroquinolin-6-yl)pyrimidin-2-yl)propan-2-ol] | ≤ 25 |  |
| Cc1nc2cc(F)c(-c3cnc(C(C)(C)O)nc3)nc2c(N[C@H](C)c2ccccc2)c1Cl [Example 213, (R)-2-(5-(7-chloro-3-fluoro-6-methyl-8-((1-phenylethyl)amino)-1,5-naphthyridin-2-yl)pyrimidin-2-yl)propan-2-ol] | ≤ 25 |  |
| Cc1nc2ccc(-c3cnc(C(C)(C)O)nc3)cc2c(N[C@H](C)c2cc(Cl)ccc2F)c1Cl [Example 406, (R)-2-(5-(3-chloro-4-((1-(5-chloro-2-fluorophenyl)ethyl)amino)-2-methylquinolin-6-yl)pyrimidin-2-yl)propan-2-ol] | ≤ 25 |  |
| CC(C)(O)c1ncc(-c2nc3c(N[C@@H](c4cc(C(N)=O)ccc4F)C(F)F)c(Cl)cnc3cc2F)cn1 [Example 493, (S)-3-(1-((3-chloro-7-fluoro-6-(2-(2-hydroxypropan-2-yl)pyrimidin-5-yl)-1,5-naphthyridin-4-yl)amino)-2,2-difluoroethyl)-4-fluorobenzamide] | ≤ 25 |  |
| Cc1nc2ccc(-c3cnc(C(C)(C)O)nc3)cc2c(N[C@H](C)c2cc(N)ccc2F)c1Cl [Example 360, (R)-2-(5-(4-((1-(5-amino-2-fluorophenyl)ethyl)amino)-3-chloro-2-methylquinolin-6-yl)pyrimidin-2-yl)propan-2-ol] | ≤ 25 |  |
| Cc1ccc(C)c(Nc2c(Cl)c(N)nc3ccc(-c4cnc(NCCO)nc4)cc23)c1 [Example 70, 2-((5-(2-amino-3-chloro-4-((2,5-dimethylphenyl)amino)quinolin-6-yl)pyrimidin-2-yl)amino)ethan-1-ol] | ≤ 25 |  |
| C[C@@H](Nc1c(Cl)cnc2ccc(-c3ccc(N4CCOC[C@H]4CO)nc3)cc12)c1ccccc1F [Example 85, ((R)-4-(5-(3-chloro-4-(((R)-1-(2-fluorophenyl)ethyl)amino)quinolin-6-yl)pyridin-2-yl)morpholin-3-yl)methanol] | ≤ 25 |  |

| SMILES | IC50 [1] [µM] | IC50 (read-out: IC50 values measured in the TNF induced HEK-Blue assay; TNFα 0.5 ng/mL, HEK-Blue-CD40L cells, 18 h) [µM] |
| --- | --- | --- |
| CC(Nc1c(Cl)cnc2ccc(-c3cnc(C(C)(C)O)nc3)cc12)c1nc(C(N)=O)ccc1F (racemic) [Example 28, 6-(1-((3-chloro-6-(2-(2-hydroxypropan-2-yl)pyrimidin-5-yl)quinolin-4-yl)amino)ethyl)-5-fluoropicolinamide] | ≤ 25 |  |
| CC(Nc1c(Cl)cnc2cc(F)c(-c3ccc(C4COCCN4)cc3)cc12)c1ccccc1F (single isomer, unassigned) [Example 598, 3-chloro-7-fluoro-N-(1-(2-fluorophenyl)ethyl)-6-(4-(morpholin-3-yl)phenyl)quinolin-4-amine] | ≤ 25 |  |
| Cc1nc2ccc(-c3cnc(C(C)(C)O)nc3)cc2c(NC(C)c2ccccc2F)c1F (racemic) [Example 159, 2-(5-(3-fluoro-4-((1-(2-fluorophenyl)ethyl)amino)-2-methylquinolin-6-yl)pyrimidin-2-yl)propan-2-ol] | ≤ 25 |  |
| C[C@@H](Nc1c(Cl)cnc2ccccc12)c1cc(-c2ccncc2)ccc1F [Example 468, (R)-3-chloro-N-(1-(2-fluoro-5-(pyridin-4-yl)phenyl)ethyl)quinolin-4-amine] | ≤ 25 |  |
| Cc1ccc(C)c(Nc2c(Cl)c(N)nc3ccc(-c4cnc(N5CCN(CC(=O)O)CC5)nc4)cc23)c1 [Example 45, 2-(4-(5-(2-amino-3-chloro-4-((2,5-dimethylphenyl)amino)quinolin-6-yl)pyrimidin-2-yl)piperazin-1-yl)acetic acid] | ≤ 25 |  |
| C[C@@H](Nc1c(Cl)cnc2ccc(-c3cnc([C@]4(O)CCC[C@H]4O)nc3)cc12)c1ccccc1F [Example 121, (1R,2R)-1-(5-(3-chloro-4-(((R)-1-(2-fluorophenyl)ethyl)amino)quinolin-6-yl)pyrimidin-2-yl)cyclopentane-1,2-diol] | ≤ 25 |  |
| COc1ncc(-c2ccc(F)c([C@@H](C)Nc3c(Cl)cnc4ccccc34)c2)cc1N [Example 521, (R)—N-(1-(5-(5-amino-6-methoxypyridin-3-yl)-2-fluorophenyl)ethyl)-3-chloroquinolin-4-amine] | ≤ 25 |  |
| Cc1ccc(C)c(Nc2c(Cl)c(N)nc3ccc(-c4cnc(N5CCNC(=O)C5)nc4)cc23)c1 [Example 72, 4-(5-(2-amino-3-chloro-4-((2,5-dimethylphenyl)amino)quinolin-6-yl)pyrimidin-2-yl)piperazin-2-one] | ≤ 25 |  |
| C[C@@H](Nc1c(Cl)cnc2ccccc12)c1cc(-c2cccnc2)ccc1F [Example 461, (R)-3-chloro-N-(1-(2-fluoro-5-(pyridin-3-yl)phenyl)ethyl)quinolin-4-amine] | ≤ 25 |  |
| CC(Nc1c(Cl)cnc2ccc(-c3cnc(C(C)(C)O)nc3)cc12)C1(c2ccc(Cl)cc2)CCCC1 (racemic) [Example 142, 2-(5-(3-chloro-4-((1-(1-(4-chlorophenyl)cyclopentyl)ethyl)amino)quinolin-6-yl)pyrimidin-2-yl)propan-2-ol] | ≤ 25 |  |
| CNC(=O)CN1CCN(c2ncc(-c3ccc4ncc(Cl)c(N[C@H](C)c5ccccc5F)c4c3)cn2)CC1 [Example 89, (R)-2-(4-(5-(3-chloro-4-((1-(2-fluorophenyl)ethyl)amino)quinolin-6-yl)pyrimidin-2-yl)piperazin-1-yl)-N-methylacetamide] | ≤ 25 |  |
| CC(Nc1c(Cl)cnc2ccc(-c3ccc(C(C)(C)O)cc3)cc12)c1cnsc1 (racemic) [Example 172, 2-(4-(3-chloro-4-((1-(isothiazol-4-yl)ethyl)amino)quinolin-6-yl)phenyl)propan-2-ol] | ≤ 25 |  |
| CC(Nc1c(Cl)cnc2cc(F)c(-c3cnc(C(O)CN4CCOCC4)cn3)cc12)c1ccccc1F (stereo not drawn) [Example 274, 1-(5-(3-chloro-7-fluoro-4-((1-(2-fluorophenyl)ethyl)amino)quinolin-6-yl)pyrazin-2-yl)-2-morpholinoethan-1-ol] | ≤ 25 |  |
| CN(Cc1c(Cl)cnc2ccc(-c3cnc(C(C)(C)O)nc3)cc12)c1ccccc1F [Example 67, 2-(5-(3-chloro-4-(((2-fluorophenyl)(methyl)amino)methyl)quinolin-6-yl)pyrimidin-2-yl)propan-2-ol] | ≤ 25 |  |
| C[C@@H](Nc1c(Cl)cnc2ccccc12)c1cc(-c2cnc(N(C)C)nc2)ccc1F [Example 536, (R)-3-chloro-N-(1-(5-(2-(dimethylamino)pyrimidin-5-yl)-2-fluorophenyl)ethyl)quinolin-4-amine] | ≤ 25 |  |
| CC(C)(O)c1ncc(-c2ccc3ncc(Cl)c(CNc4ccccc4)c3c2)cn1 [Example 11, 2-(5-(3-chloro-4-((phenylamino)methyl)quinolin-6-yl)pyrimidin-2-yl)propan-2-ol] | ≤ 25 |  |
